From article PMC4494927, “Discovery of a small molecule targeting SET-PP2A interaction to overcome BCR-ABLT315I mutation of chronic myeloid leukemia” (Oncotarget, 2015)

Tested on: K562 cells
Experiment: Cytotoxicity assay (CellTiter-Glo)
Format: cell-based
Details: Homo sapiens, 72 h, cell viability
Experimental: Twenty types of tumor cell lines were seeded at 4000 cells per well in 96-well plates. […] Cell viability was measured with the CellTiter-Glo Luminescent Cell Viability Assay (Promega) according to the manufacturer's instructions. Luminescence was measured using an EnVision Multilabel Plate Reader (Perkin-Elmer). The cytotoxicity of TGI1002 was expressed as the percentage of luminescence relative to that of untreated cells.

`Cc1ccc(NC(=O)c2ccc(CN3CCN(C)CC3)cc2)cc1Nc1nccc(-c2cccnc2)n1` [imatinib, reference compound] was tested. Which IC50 did it give?
Its IC50 is 310 ± 10 nM.
